Source: US20070032439, “Tarp promoter and uses thereof” (published 2007)
Construct, isoform or probe ends are uncertain for at least one entry. At least one result comes from cells or an extract, where the contact may be indirect. A negative result means that nothing was seen under these conditions. Tags and fusion partners may be left off the protein sequences shown.

Molecular target: T1, Androgen receptor (AR), endogenous LNCaP (mutated AR, mutation not stated) (Homo sapiens) (UniProt P10275)
T1 sequence (looked up, limits assumed): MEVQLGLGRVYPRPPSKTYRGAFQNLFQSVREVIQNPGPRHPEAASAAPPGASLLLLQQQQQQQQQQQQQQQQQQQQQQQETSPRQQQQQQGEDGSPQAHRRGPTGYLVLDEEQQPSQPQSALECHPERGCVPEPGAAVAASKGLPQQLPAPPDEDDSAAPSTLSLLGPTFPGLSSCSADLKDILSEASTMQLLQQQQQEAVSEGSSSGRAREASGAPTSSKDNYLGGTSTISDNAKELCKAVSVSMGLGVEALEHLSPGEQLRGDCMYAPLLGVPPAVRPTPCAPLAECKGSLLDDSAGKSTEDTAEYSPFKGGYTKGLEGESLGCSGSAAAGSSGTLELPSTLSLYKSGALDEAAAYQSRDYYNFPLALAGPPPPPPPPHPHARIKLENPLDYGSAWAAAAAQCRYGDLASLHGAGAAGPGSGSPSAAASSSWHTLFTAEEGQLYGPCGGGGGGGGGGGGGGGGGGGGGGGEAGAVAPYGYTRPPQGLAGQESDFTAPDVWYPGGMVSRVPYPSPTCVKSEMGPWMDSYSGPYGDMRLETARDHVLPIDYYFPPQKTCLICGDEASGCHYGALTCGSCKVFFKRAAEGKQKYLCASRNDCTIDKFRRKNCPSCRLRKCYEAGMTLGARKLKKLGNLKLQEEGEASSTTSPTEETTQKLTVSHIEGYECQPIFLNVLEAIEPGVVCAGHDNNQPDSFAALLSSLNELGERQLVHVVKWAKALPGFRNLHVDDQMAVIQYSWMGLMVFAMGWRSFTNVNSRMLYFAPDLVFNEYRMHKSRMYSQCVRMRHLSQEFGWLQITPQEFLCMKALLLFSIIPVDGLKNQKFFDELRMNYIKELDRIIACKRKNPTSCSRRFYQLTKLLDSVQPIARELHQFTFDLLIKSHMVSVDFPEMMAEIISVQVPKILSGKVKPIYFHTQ
Assay: pull-down
Conditions: RIPA buffer, 150 mM NaCl, 4 C, anti-AR Western blot, protein in an extract, protein details: LNCaP total RIPA extract, label: biotin

Row | Sequence | binding result | binding result (variant of wild-type ARE[-186] biotinylated oligo)
1 | GCAAGGTGAGGTCAGTTCTTAAA (double strand) [wild-type ARE[-186] biotinylated oligo] | binds | –
2 | GCAAGGTGTGGTCAACTATTAAA (double strand) [mutated ARE[-186] biotinylated oligo] | – | no binding
